Results published in PubChem BioAssay AID485349 (National Center for Advancing Translational Sciences (NCATS), 2010).
About 620 (0.19%) of roughly 320,000 compounds were called active. The inconclusive results got no clear call from the source; some entries with a clear call stand among them for comparison. The call rests on the fitted dose curve; in most records, active means well fitted activation curve with a large enough effect; inconclusive means small, poorly fitted or top-dose-only effect; inactive means no such curve, though single readings can be large or run the other way. Potencies beside an inconclusive call are fits to weak or partial responses and may not hold up.

Assay: qHTS Assay for Identifying a Potential Treatment of Ataxia-Telangiectasia; further: nearly all actives have a fitted effect of over 45% in size; on activation: % of control where 0% means no effect
Details: […] A-T fibroblasts, KAP-1 phosphorylation AlphaLISA, neocarzinostatin DNA damage 30 min before lysis; series mostly up to 57.5 µM; activation: at the top concentration
From the text: NIH Chemical Genomics Center [NCGC] NIH Molecular Libraries Probe Centers Network [MLPCN] MLPCN Grant: MH089030-01 Assay Submitter (PI): Wei Zheng and Yosef Shiloh Ataxia-telangiectasia (A-T) is a devastating and progressive disease for which, there is no cure. Although A-T is a multisystem disease, it is stereotyped characterized by its neurological symptoms such as truncal ataxia, due to cerebellar cortical degeneration of the Purkinje and granule cells. Other symptoms of A-T are telangiectasias (dilated blood vessels), primary immunodeficiency, marked sensitivity to ionizing radiation (IR), chromosomal instability and predisposition to cancer. The underlying genetic cause of A-T is null mutations in the ATM (A-T mutated) gene. ATM is a nuclear serine/threonine kinase that functions as a master regulator of the cellular responses to double strand breaks (DSBs) in the DNA. Upon activation by DSBs, ATM phosphorylates a plethora of down stream targets, including KAP-1 on […]. KAP-1 phosphorylation occurs shortly in response to DSBs and mediates global chromatin relaxation, which facilitates DSB repair. To screen for small molecules that will compensate for the loss of ATM in cells derived from A-T patients, we monitored KAP-1 phosphorylation as a readout for ATM-like activity using an AlphaLISA assay.
qHTS Assay Protocol: Step,Parameter,Value,Description 1. Cell Plating, 3 ul, 500 cells/well in OPTI-MEM, 1% FBS, 1% Pen/Strep 2. Incubation, 16-24 hr, 37C, 5% CO2, 95% humidity 3. Library compounds, 23 nl, 76.7 - 0.61uM dilution series final concentration 4. Incubation, 60 min, 37C, 5% CO2, 95% humidity 5. Reagent, 1 ul, 1600 ng/ml NCS in PBS + 0.05% BSA + 0.005% Tween 20 6. Incubation, 30 min, 37C, 5% CO2, 95% humidity 7. Reagent, 1 ul, Premixed detection reagents and lysis buffer 8. Reagent, 1 ul, 0.6% Antifoam A 9. Incubation, 6 hr, 25C, 95% humidity 10. Readout, EnVision, EnVision plate reader. AlphaScreen 1536-well protocol Cells were plated using medium-binding white solid-bottom tissue culture treated Kalypsys plates. Multidrop dispense of 3 uL of […] (hTERT immortalized A-T patient fibroblast cells). Detection reagent and lysis buffer was 3.75nM Rab-a-pKAP1 antibody bound to 75 ng/ul AlphaScreen SA donor bead, 3.75 nM Biot-M-a-KAP1 antibody bound to AlphaLISA protein A acceptor bead, 0.5x protease inhibitor cocktail and 0.25x PerkinElmer lysis buffer. EnVision protocol for 1536-well AlphaScreen read (30ms excitation, 100ms read), about 10 min/plate.
Potency means the concentration at half of the fitted maximal effect.

Row | Structure (SMILES) | Potency | activation
1 | CCn1ncc(Br)c1C(=O)Nc1ccc(C(C)C)cc1 | inconclusive: 39.8 µM [activator, partial curve, poor fit] | –
2 | Cc1c2ccccc2nc2c(F)c(NC(C)C)c(F)c(F)c12 | – | inactive: 23.5%
3 | CCCCCCCOC(=O)c1nc(Cl)c(Cl)c(N)c1Cl | inconclusive: 22.4 µM [activator, single point] | –
4 | C=CCn1c(NS(=O)(=O)c2ccccc2)c(S(=O)(=O)c2ccc(C)cc2)c2nc3ccccc3nc21 | active: 22.4 µM | –
5 | CCCCOc1ccc(C(=O)CCN2CCCCC2)cc1 | – | inactive: -16.3%
6 | CC[C@]12c3[nH]c4ccccc4c3CCN1C(=O)C(CC(=O)NCc1ccc(OC)c(OC)c1)C[C@@H]2C(=O)N1CCN(C(=O)C2CC2)CC1 (stereo not given in full) | – | inactive: -3.48%
7 | O=C1NC(NS(=O)(=O)c2ccc(Cl)cc2)(C(F)(F)F)C(=O)N1CCc1ccccc1 (stereo not given) | inconclusive: 0.708 µM [activator, full curve, poor fit] | –
8 | CCc1ccc(C(=O)CN(C#N)c2nc(C)cc(C)n2)cc1 | inconclusive: 39.8 µM [activator, single point] | –
9 | COc1cc(C(=O)NCCNC(=O)C2CCCNC2=O)cc(OC)c1OC (stereo not given) | inconclusive: 39.8 µM [activator, partial curve, poor fit] | –
10 | Cc1cccc(N=Nc2c(N)n[nH]c2-c2ccc(Cl)cc2)c1 | inconclusive: 39.8 µM [activator, single point] | –
11 | CCOC(=O)c1ccccc1NC(=O)c1ccc2nc[nH]c2c1 | inconclusive: 0.708 µM [activator, partial curve, poor fit] | –
12 | COc1ccc(/C=N/NC(=O)CCn2nc(C)cc2C)cc1 | inconclusive: 39.8 µM [activator, single point] | –
13 | CC(C)C(=O)Nc1ccc(NC(=O)c2cccs2)cn1 | – | inactive: 10.5%
14 | CCOC(=O)c1c(CC(C)C)csc1NC(=O)C(C)C | inconclusive: 31.6 µM [activator, single point] | –
15 | Cc1ccc(NS(=O)(=O)c2ccc(C3CCCCC3)cc2)cc1 | inconclusive: 35.5 µM [activator, single point] | –
16 | O=C(COc1ccc2ccccc2c1)N[C@@H](C(=O)O)c1ccc(O)cc1 | inconclusive: 3.16 µM [activator, partial curve] | –
17 | O=C(c1ccc(F)cc1)N1CCC(c2ccccc2)C1 (stereo not given) | inconclusive: 3.98 µM [activator, partial curve] | –
18 | Cc1cccn2c(=O)c(C=O)c(Nc3ccccc3)nc12 | – | inactive: -0.487%
19 | Cc1cc(NCCCO)n2c(nc3ccccc32)c1C#N | inconclusive: 22.4 µM [activator, partial curve, poor fit] | –
20 | O=C(O)c1ccc(N/N=C/c2ccc(OC(=O)c3cccc(Cl)c3)cc2)cc1 | inconclusive: 39.8 µM [activator, single point] | –
21 | CC(C)Nc1nc(Oc2cccc(Cl)c2Cl)cc(C(F)(F)F)n1 | inconclusive: 35.5 µM [activator, single point] | –
22 | COc1ccc(O)c(/C=N/NC(=O)c2cc(=O)[nH]c3ccccc23)c1 | inconclusive: 1.58 µM [activator, partial curve] | –
23 | COc1ccc(C[C@H]2CN3C(=NC[C@H]3Cc3ccccc3)N2CCNC(=O)CCC2CCCCC2)cc1 | – | inactive: 7.83%
24 | COc1ccc(OC(=O)c2cnn(-c3ccccc3)c2C)cc1 | – | inactive: 2.9%

Row | Structure (SMILES) | Potency | activation
25 | Cc1ccc(CNc2ncnc3c2cnn3-c2ccccc2)cc1 | – | inactive: 11.3%
26 | COC(=O)[C@@H]1CC[C@@](C)(c2ccc(OC)cc2)C1(C)C | inconclusive: 39.8 µM [activator, single point] | –
27 | COc1ccc(CCN(C)C(=O)CNC(=O)Cc2cccc3ccccc23)cc1OC | inconclusive: 10 µM [activator, partial curve] | –
28 | CC(=O)Nn1c(-c2ccccc2)cc2ccccc21 | – | inactive: -2.15%
29 | COCCCNc1oc(/C=C/c2ccccc2)nc1C#N | active: 15.8 µM | –
30 | CC(C)N(CCO)C(=O)CCc1nnc(CCCc2ccccc2)o1 | – | inactive: -2.25%
31 | CSc1nc2ccc(NS(=O)(=O)c3ccc4c(c3)OCCO4)cc2s1 | – | inactive: 5.59%
32 | COc1cc(O)c(C(=O)/C=C/c2ccccc2)c(OC)c1 | inconclusive: 28.2 µM [activator, single point] | –
33 | c1ccc(-c2csc3ncnc(-n4cnc5ccccc54)c23)cc1 | – | inactive: 0.32%
34 | C=CCNc1oc(/C=C/c2ccccc2)nc1C#N | inconclusive: 39.8 µM [activator, single point] | –
35 | COc1ccc2oc(C(=O)N3CCN(S(=O)(=O)c4cccc([N+](=O)[O-])c4)CC3)c(C)c2c1 | – | inactive: 0.376%
36 | COc1ccc(N2CCN(C(=O)CSc3nnnn3-c3ccc4c(c3)OCCO4)CC2)cc1 | – | inactive: 4.69%
37 | N#Cc1nc(COc2ccccc2Cl)oc1NCc1cccnc1 | inconclusive: 11.2 µM [activator, partial curve, poor fit] | –
38 | CCc1ccc(C2=NN(c3ccc(S(N)(=O)=O)cc3)C(c3ccc(F)cc3)C2)cc1 (stereo not given) | inconclusive: 28.2 µM [activator, partial curve] | –
39 | OCCN(CCO)c1ccc(C(c2ccc(Cl)cc2)c2ccc(N(CCO)CCO)cc2Cl)c(Cl)c1 | inconclusive: 25.1 µM [activator, partial curve] | –
40 | COc1ccccc1-c1c(C#N)c(N)nc2c1CCc1ccccc1-2 | active: 22.4 µM | –
41 | COc1ccc(C2c3ccc4ccccc4c3Oc3ncn(CCCO)c(=N)c32)cc1OC (stereo not given) | active: 39.8 µM | –
42 | CC1(C)c2[nH]c3ccccc3c2C[C@H]2C(=O)N(CCCO)CC(=O)N21 | inconclusive: 3.55 µM [activator, partial curve] | –
43 | CC(/C=N\NC(=O)CN1CCN(S(=O)(=O)c2ccc(C)cc2)CC1)=C\c1ccccc1 | – | inactive: -4.58%
44 | Cc1ccc(C(=O)Nc2ccc(C(=O)N/N=C/c3ccc(C)o3)cc2)cc1 | inconclusive: 39.8 µM [activator, single point] | –
45 | COc1ccc(Nc2nc(-c3ccccc3O)nc3ccccc23)cc1 | inconclusive: 14.1 µM [activator, partial curve, poor fit] | –
46 | C=CCN1CCN(C(c2cc(OC)ccc2OC)c2nnnn2CC2CCCO2)CC1 (stereo not given) | inconclusive: 15.8 µM [activator, partial curve] | –
47 | Cc1c(C)n(CCc2ccccc2)c2ncnc(NCCCN(C)C)c12 | inconclusive: 0.631 µM [activator, full curve, poor fit] | –
48 | Cn1c2ccccc2c(=O)c2cc(C#CC3=CCCCC3)ccc21 | inconclusive: 15.8 µM [activator, partial curve] | –

Ordered by SMILES length (ascending): some entries from above
Row | Structure (SMILES) | Potency | activation
5 | CCCCOc1ccc(C(=O)CCN2CCCCC2)cc1 | – | inactive: -16.3%
29 | COCCCNc1oc(/C=C/c2ccccc2)nc1C#N | active: 15.8 µM | –
3 | CCCCCCCOC(=O)c1nc(Cl)c(Cl)c(N)c1Cl | inconclusive: 22.4 µM [activator, single point] | –
32 | COc1cc(O)c(C(=O)/C=C/c2ccccc2)c(OC)c1 | inconclusive: 28.2 µM [activator, single point] | –
30 | CC(C)N(CCO)C(=O)CCc1nnc(CCCc2ccccc2)o1 | – | inactive: -2.25%
40 | COc1ccccc1-c1c(C#N)c(N)nc2c1CCc1ccccc1-2 | active: 22.4 µM | –
21 | CC(C)Nc1nc(Oc2cccc(Cl)c2Cl)cc(C(F)(F)F)n1 | inconclusive: 35.5 µM [activator, single point] | –
31 | CSc1nc2ccc(NS(=O)(=O)c3ccc4c(c3)OCCO4)cc2s1 | – | inactive: 5.59%
16 | O=C(COc1ccc2ccccc2c1)N[C@@H](C(=O)O)c1ccc(O)cc1 | inconclusive: 3.16 µM [activator, partial curve] | –
42 | CC1(C)c2[nH]c3ccccc3c2C[C@H]2C(=O)N(CCCO)CC(=O)N21 | inconclusive: 3.55 µM [activator, partial curve] | –
38 | CCc1ccc(C2=NN(c3ccc(S(N)(=O)=O)cc3)C(c3ccc(F)cc3)C2)cc1 (stereo not given) | inconclusive: 28.2 µM [activator, partial curve] | –
7 | O=C1NC(NS(=O)(=O)c2ccc(Cl)cc2)(C(F)(F)F)C(=O)N1CCc1ccccc1 (stereo not given) | inconclusive: 0.708 µM [activator, full curve, poor fit] | –
39 | OCCN(CCO)c1ccc(C(c2ccc(Cl)cc2)c2ccc(N(CCO)CCO)cc2Cl)c(Cl)c1 | inconclusive: 25.1 µM [activator, partial curve] | –
23 | COc1ccc(C[C@H]2CN3C(=NC[C@H]3Cc3ccccc3)N2CCNC(=O)CCC2CCCCC2)cc1 | – | inactive: 7.83%

Later entries

Row | Structure (SMILES) | Potency | activation
49 | CCCCOC(=O)C1CN(c2ccccc2)N=C1C(=O)OCC (stereo not given) | inconclusive: 39.8 µM [activator, single point] | –
50 | CC1(C)Cc2c(C#N)c(N3CCCC3)nc(-c3ccco3)c2CO1 | inconclusive: 28.2 µM [activator, partial curve] | –
51 | Cc1cnc(C(=O)OCC(=O)N2CCC(C)CC2)cn1 | inconclusive: 35.5 µM [activator, single point] | –
52 | O=[N+]([O-])c1ccc(Nc2ccccc2O)c2nonc12 | – | inactive: -5.56%
53 | Cc1ccc(-c2cc(C(=O)N3CCCC3)c3ccccc3n2)s1 | active: 20 µM | –
54 | COC(=O)[C@@]12CCCN1[C@H](c1ccc(-c3ccccc3)cc1)[C@H]1C(=O)N(C)C(=O)[C@H]12 | inconclusive: 39.8 µM [activator, partial curve] | –
55 | Cc1ccc(-c2noc(-c3ccno3)n2)cc1 | – | inactive: 16.4%
56 | COc1ccc(C(=O)OCc2cc(=O)n3c(C)csc3n2)cc1F | – | inactive: -9.69%
57 | CC(=O)Nc1ccc2nc(CN3CCC(CO)(CCc4ccccc4)CC3)ccc2c1 | inconclusive: 39.8 µM [activator, partial curve, poor fit] | –
58 | Cc1c(C(=O)OCC(=O)NCc2ccc3c(c2)OCO3)cccc1[N+](=O)[O-] | inconclusive: 12.6 µM [activator, partial curve] | –
59 | Cc1ccc(NC(=O)C2CCCN(c3cnccn3)C2)c(C)c1 (stereo not given) | inconclusive: 5.62 µM [activator, single point] | –
60 | COC(=O)c1ccc(-c2nc3ccc(C)cc3o2)cc1 | inconclusive: 31.6 µM [activator, single point] | –
61 | C[C@@H](C(=O)Nc1ccc2ccccc2c1)[C@@H]1C[C@@]1(C)[C@@H](NC(=O)c1cccnc1)c1ccccc1 | inconclusive: 39.8 µM [activator, single point] | –
62 | Cc1nnc(SCc2ccccc2C#N)n1-c1ccccc1 | inconclusive: 7.08 µM [activator, single point] | –
63 | CCN(CC)S(=O)(=O)c1cccc(C(=O)NC(Cc2c[nH]c3ccccc23)c2nnc3n2CCC3)c1 (stereo not given) | – | inactive: 3.98%
64 | O=C(c1ccc(Cn2cnnn2)cc1)N1CCCC(Nc2ccc(F)cc2)C1 (stereo not given) | inconclusive: 3.55 µM [activator, single point] | –
65 | Oc1ccc2oc3c(c2c1C=NCc1ccncc1)CCCC3 | inconclusive: 39.8 µM [activator, single point] | –
66 | CC(C)(C)OC(=O)N[C@@H](Cc1ccccc1)c1nnc(S(=O)(=O)Cc2cccc(F)c2)o1 | inconclusive: 3.16 µM [activator, partial curve] | –
67 | CCc1noc(C)c1C(=O)NNC(=O)COc1ccc(C)cc1 | – | inactive: 3.57%
68 | O=C(NC(N1CCOCC1)C(Cl)(Cl)Cl)c1ccco1 (stereo not given) | inconclusive: 39.8 µM [activator, single point] | –
69 | COc1cccc(N2C(=O)C(c3ccccc3)=C(c3nc4ccccc4s3)C2NC(C)=O)c1 (stereo not given) | – | inactive: 3.2%
70 | COc1ccc(CC(=O)Oc2ccccc2C)cc1 | inconclusive: 7.08 µM [activator, single point] | –
